PubChem BioAssay AID504774, Drosophila RNAi Screening Center | 2011

- Screen: 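Fly genes whose loss alters survival after alkylation damage to DNA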 (primary screen)
- System: Drosophila Kc167 cells
- Reagent: long dsRNA against Drosophila genes, about 0.25 µg dsRNA per well
- Time to read-out: about 6 days: 3 days knock-down, then 3 days with or without MMS
- Treatment: methyl methanesulphonate 0.004% (w/v) for 3 days after knock-down
- Detection: 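ATP-dependent luminescence as a measure of live cells in MMS-exposed wells, quantile normalised within each plate, with replicate values also given as a mean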
- Reading the numbers: mean viability with MMS and viability with MMS: higher = more surviving cells after MMS
In all, the deposit lists about 23,000 reagents; below is a random part of those with a known target gene and a result. 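Values are quantile-normalised luminescence on an arbitrary scale; higher means more cells surviving MMS.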 Names joined by + are all predicted targets of the reagent. No sequences are given here.

gene knocked down	amplicon	mean viability with MMS	viability with MMS, replicate 1	viability with MMS, replicate 2
CG11437	DRSC11659	3.39e6	3.81e6	3.80e6
CG13032	DRSC09912	3.65e6	4.18e6	4.06e6
nahoda	DRSC03954	3.58e6	4.06e6	4.06e6
nahoda	DRSC04126	3.79e6	4.44e6	4.38e6
pum	DRSC12722	3.69e6	4.02e6	4.25e6
pum	DRSC12726	3.40e6	3.95e6	3.76e6
pum	DRSC17037	3.40e6	4.10e6	4.00e6
pum	DRSC17038	3.43e6	3.87e6	3.94e6
pum	DRSC22758	3.56e6	4.02e6	4.02e6
pum	DRSC22794	3.58e6	4.21e6	3.90e6
nSMase	DRSC08237	3.81e6	4.27e6	4.40e6
CG34106	DRSC01578	3.50e6	3.94e6	4.02e6
Gp210	DRSC04861	3.55e6	4.02e6	4.05e6
Gp210	DRSC04900	3.54e6	4.00e6	3.94e6
LanB2	DRSC11208	3.44e6	3.94e6	3.87e6
CG30323	DRSC07656	3.53e6	3.97e6	4.04e6
CG13377	DRSC18622	3.51e6	3.98e6	3.99e6
Bhmt	DRSC02079	3.56e6	4.05e6	4.03e6
ptc	DRSC05117	3.68e6	4.00e6	4.35e6
ptc	DRSC07669	3.52e6	3.99e6	4.00e6
tai	DRSC02207	2.96e6	3.54e6	3.56e6
tai	DRSC02673	3.54e6	4.03e6	4.02e6
CG8320 + ATPCL	DRSC07147	3.79e6	4.25e6	4.27e6
BobA	DRSC09889	3.71e6	4.15e6	4.17e6
CG31789	DRSC01645	3.49e6	3.90e6	4.01e6
CG32820 + CG17450 + CG32819	DRSC21803	3.58e6	4.02e6	4.10e6
CG32820 + CG17450 + CG32819	DRSC22812	3.53e6	3.99e6	4.03e6
Dyrk2	DRSC03610	3.47e6	3.92e6	3.92e6
Sbf	DRSC16852	3.88e6	4.40e6	4.37e6
CG32235	DRSC23257	3.56e6	4.00e6	4.10e6
CG17493	DRSC03798	3.39e6	3.83e6	3.82e6
Ctf4	DRSC06380	3.72e6	4.18e6	4.24e6
CG33491 (retired record) + CG33496 (retired record) + CG33487 (retired record) + 1 more	DRSC22969	3.40e6	3.90e6	3.91e6
Rchy1	DRSC02542	3.12e6	3.34e6	3.63e6
Rchy1	DRSC23118	3.48e6	3.94e6	3.99e6
Arp53D	DRSC05923	3.52e6	3.99e6	3.99e6
Dscam3	DRSC14525	3.49e6	4.02e6	3.91e6
Dscam3	DRSC16376	3.53e6	4.01e6	4.00e6
Capa	DRSC15058	3.72e6	4.26e6	4.14e6
robo3	DRSC00374	3.57e6	4.02e6	4.09e6
robo3	DRSC00375	3.24e6	3.62e6	3.66e6
robo3	DRSC00684	3.51e6	4.01e6	3.96e6
RpL41	DRSC22958	3.35e6	3.90e6	3.85e6
CG6769	DRSC20006	3.72e6	4.22e6	4.28e6
CG32266	DRSC08062	3.87e6	4.46e6	4.17e6
Cyp4ac2	DRSC03303	3.58e6	3.98e6	4.12e6
CG14965	DRSC08424	3.76e6	4.26e6	4.27e6
Taldo	DRSC04320	3.72e6	4.28e6	4.22e6
CG12880	DRSC14568	3.55e6	4.08e6	4.00e6
SuUR	DRSC11292	3.72e6	4.03e6	4.33e6
CG12659	DRSC17862	3.56e6	4.15e6	3.94e6
CG31635	DRSC02273	3.78e6	4.40e6	4.01e6
CG31635	DRSC02274	3.34e6	3.59e6	3.90e6
chk	DRSC04994	3.50e6	3.86e6	3.89e6
gukh	DRSC14768	3.63e6	4.10e6	4.12e6
gukh	DRSC15806	3.58e6	4.12e6	3.99e6
gukh	DRSC15944	3.76e6	4.24e6	4.21e6
Porin2	DRSC02584	3.56e6	3.90e6	4.19e6
CG42355	DRSC07967	3.65e6	4.13e6	4.13e6
Tsp42A	DRSC04862	3.49e6	3.91e6	4.00e6
plx	DRSC12260	3.54e6	4.08e6	3.97e6
plx	DRSC12385	3.73e6	3.80e6	3.71e6
plx	DRSC22683	3.39e6	3.90e6	3.90e6
CHKov2	DRSC14262	3.47e6	3.92e6	3.95e6
Jasper	DRSC16352	3.66e6	4.20e6	4.09e6
CG30457	DRSC06661	3.81e6	3.90e6	3.97e6
Jra	DRSC07447	3.52e6	4.11e6	3.87e6
CG17260	DRSC00497	3.56e6	4.03e6	4.03e6
